Laboratory results: PubChem BioAssay AID493014 (National Center for Advancing Translational Sciences (NCATS), 2011)
Some of the results follow. These are further read-outs of the screen, such as a control signal, another cell line or another target. No call is given for them. Compounds called inactive in the main read-out are mostly missing here. The note in brackets gives the kind of curve behind each potency; many fits are weak.

Assay: qHTS Assay to Find Inhibitors of Chronic Active B-Cell Receptor Signaling
Conditions: ABC-DLBCL IkBa-CBG/CBR reporter, luminescence ratio (green luciferase fused to IkBa over red control in TMD8 lymphoma cells), 4 h; measured here: CBR red luminescence, cell number
Summary of the method: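 TMD8 ABC-DLBCL cells carrying doxycycline-inducible green luciferase fused to IkappaBalpha plus unfused red luciferase were exposed to compounds (up to 46 uM) for 4 hrs at 37C. Activity came from the overlap-corrected green/red luminescence ratio.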

Row | SMILES | AC50
1 | N#CC1=C(N)Oc2n[nH]c(-c3cccs3)c2C1c1cccs1 (configuration not stated) | 17.8 µM [falling, partial curve]
2 | O=C(NNC(=S)NC(=O)c1cccnc1)c1ccccc1 | 35.5 µM [falling, single point]
3 | S=C(NCc1ccco1)Nc1cc(-c2ccccc2)[nH]n1 | 8.91 µM [falling, partial curve, poor fit]
4 | Nc1cc(=O)[nH]c(SCC(=O)NNC(=O)c2ccccc2)n1 | 5.8 µM [falling, partial curve]
5 | COc1ccc(N/C=C/C(=O)c2sc(-c3ccccc3)nc2C)cc1 | 0.501 µM [rising, full curve, poor fit]
6 | CC(C)C(=O)Nc1c(-c2ccc(Cl)cc2)c(=O)c2ccccc2n1C | 35.5 µM [rising, single point]
7 | CC(C)(C)OC(=O)N[C@@H](Cc1ccccc1)c1nnc(S(=O)(=O)Cc2ccccc2)o1 | 7.94 µM [falling, partial curve]
8 | COc1ccc(OC)c(Nc2nc(-c3sc(NC(=O)CC(C)C)nc3C)cs2)c1 | 3.16 µM [falling, single point]
9 | COc1ccccc1-c1cc(N)n(S(=O)(=O)c2ccc(F)c(C)c2)n1 | 8.2 µM [falling, partial curve]
10 | COc1ccc(NC(=O)Nc2c[nH]c(=O)[nH]c2=O)cc1 | 8.91 µM [rising, partial curve, poor fit]
11 | Cc1c(Cl)ccc2c1NC(=O)[C@]21[C@@H]2C(=O)N(Cc3ccccc3)C(=O)[C@@H]2[C@@H]2CCCN21 | 12.6 µM [falling, partial curve]
12 | COc1ccc(-c2nc(C#N)c(N3CCCCCC3)o2)cc1 | 3.66 µM [rising, full curve, poor fit]
13 | Cc1ccnc(NC(=O)c2cccc(S(=O)(=O)N3CCCc4ccccc43)c2)c1 | 29.1 µM [falling, single point]
14 | C=CCOc1ccc(C=NNc2ccc(S(=O)(=O)Nc3ccccc3C(=O)O)cc2[N+](=O)[O-])cc1OC | 29.1 µM [rising, single point]
15 | NS(=O)(=O)c1ccc(CCNC(=O)CSc2ccc([N+](=O)[O-])cc2)cc1 | 35.5 µM [rising, partial curve, poor fit]
16 | Cc1c(NC(=O)COC(=O)Cc2ccc(Cl)cc2)c(=O)n(-c2ccccc2)n1C | 0.562 µM [falling, partial curve, poor fit]
17 | CCN1C(=O)c2cccc3c(NC(=O)C(C)(C)C)ccc1c23 | 29.1 µM [falling, single point]

Two records picked at random from the list so far, as already listed:
Row | SMILES | AC50
8 | COc1ccc(OC)c(Nc2nc(-c3sc(NC(=O)CC(C)C)nc3C)cs2)c1 | 3.16 µM [falling, single point]
16 | Cc1c(NC(=O)COC(=O)Cc2ccc(Cl)cc2)c(=O)n(-c2ccccc2)n1C | 0.562 µM [falling, partial curve, poor fit]
